Test results reported in publication doi:10.1101/2021.03.03.433707.
Results are given in words; binding and its absence hold for the method and conditions named.

Target: T1, MatPΔ18C (printed MatPA18C; 1-132) (E. coli) (UniProt P0A8N0)
T1 sequence: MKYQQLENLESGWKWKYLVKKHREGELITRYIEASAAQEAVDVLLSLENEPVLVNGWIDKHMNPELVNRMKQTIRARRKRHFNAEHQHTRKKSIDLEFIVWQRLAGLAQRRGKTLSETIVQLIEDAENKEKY
Assay: native MS

- binding: no binding
B1: ParC, full length (enzyme, UniProt P0AFI2 1-752)
chain: MSDMAERLALHEFTENAYLNYSMYVIMDRALPFIGDGLKPVQRRIVYAMSELGLNASAKFKKSARTVGDVLGKYHPHGDSACYEAMVLMAQPFSYRYPLVDGQGNWGAPDDPKSFAAMRYTESRLSKYSELLLSELGQGTADWVPNFDGTLQEPKMLPARLPNILLNGTTGIAVGMATDIPPHNLREVAQAAIALIDQPKTTLDQLLDIVQGPDYPTEAEIITSRAEIRKIYENGRGSVRMRAVWKKEDGAVVISALPHQVSGARVLEQIAAQMRNKKLPMVDDLRDESDHENPTRLVIVPRSNRVDMDQVMNHLFATTDLEKSYRINLNMIGLDGRPAVKNLLEILSEWLVFRRDTVRRRLNYRLEKVLKRLHILEGLLVAFLNIDEVIEIIRNEDEPKPALMSRFGLTETQAEAILELKLRHLAKLEEMKIRGEQSELEKERDQLQGILASERKMNNLLKKELQADAQAYGDDRRSPLQEREEAKAMSEHDMLPSEPVTIVLSQMGWVRSAKGHDIDAPGLNYKAGDSFKAAVKGKSNQPVVFVDSTGRSYAIDPITLPSARGQGEPLTGKLTLPPGATVDHMLMESDDQKLLMASDAGYGFVCTFNDLVARNRAGKALITLPENAHVMPPVVIEDASDMLLAITQAGRMLMFPVSDLPQLSKGKGNKIINIPSAEAARGEDGLAQLYVLPPQSTLTIHVGKRKIKLRPEELQKVTGERGRRGTLMRGLQRIDRVEIDSPRRASSGDSEE
